{"source": "PubChem BioAssay AID1224828 (NIAID, 2016)", "screen": "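Find genes required for NF-kappaB p65 moving into the nucleus after LPS in mouse macrophages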 (primary screen)", "cell system": "mouse RAW264.7 G9 macrophage reporter cells (GFP-p65, Tnf promoter-mCherry)", "knock-down reagent": "siRNA pool against mouse genes, 100 nM", "time to read-out": "2 days siRNA transfection, then 40 min LPS before fixation", "conditions": "LPS (Salmonella minnesota R595) at 10 ng/ml", "read-out": "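Microscopy ratio of nuclear to perinuclear-ring GFP-p65 signal, scaled to the plate median; gene score is the average of two replicate robust z-scores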", "scale": "p65 translocation robust z-score: higher = more nuclear NF-kappaB p65 after LPS than the plate median; nuclear/cytoplasmic p65 ratio: higher = more nuclear NF-kappaB p65", "call rule": "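Active if robust z is above 3.3 (negative regulators) or below -1.56, the Tlr4 control median (positive regulators); activity score 50 or more; control wells not called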", "meaning of the calls": "active = hit (p65 shift raised or lowered); inactive = no clear change", "note": "This is a random part of about 17,000 deposited reagents. Of all reagents, 762 (4.5%) are marked active. 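Active calls include both raised and lowered p65 entry, mostly lowered; wells with fewer than 50 cells lack a z-score.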 The raw values are shown without normalisation. No sequences are given here."}
The opening 2 entries as a preview:
{"target":"Sh2b2","p65 translocation robust z-score":-1.05,"nuclear/cytoplasmic p65 ratio, rep 1":1.5,"nuclear/cytoplasmic p65 ratio, rep 2":1.42,"low cell count flag":"enough cells to score","call":"inactive"}
{"target":"Ripk2","p65 translocation robust z-score":-2.19,"nuclear/cytoplasmic p65 ratio, rep 1":1.25,"nuclear/cytoplasmic p65 ratio, rep 2":1.17,"low cell count flag":"enough cells to score","call":"active"}

The list itself, from the first entry:
{"target":"Sh2b2","p65 translocation robust z-score":-1.05,"nuclear/cytoplasmic p65 ratio, rep 1":1.5,"nuclear/cytoplasmic p65 ratio, rep 2":1.42,"low cell count flag":"enough cells to score","call":"inactive"}
{"target":"Ripk2","p65 translocation robust z-score":-2.19,"nuclear/cytoplasmic p65 ratio, rep 1":1.25,"nuclear/cytoplasmic p65 ratio, rep 2":1.17,"low cell count flag":"enough cells to score","call":"active"}
{"target":"Lrrc28","nuclear/cytoplasmic p65 ratio, rep 1":1.63,"nuclear/cytoplasmic p65 ratio, rep 2":1.8,"low cell count flag":"fewer than 50 cells per well; well left out of scoring","call":"inactive"}
{"target":"Micu1","p65 translocation robust z-score":-0.2,"nuclear/cytoplasmic p65 ratio, rep 1":1.62,"nuclear/cytoplasmic p65 ratio, rep 2":1.69,"low cell count flag":"enough cells to score","call":"inactive"}
{"target":"Or8k38","p65 translocation robust z-score":0.08,"nuclear/cytoplasmic p65 ratio, rep 1":1.71,"nuclear/cytoplasmic p65 ratio, rep 2":1.55,"low cell count flag":"enough cells to score","call":"inactive"}
{"target":"Mrpl50","p65 translocation robust z-score":2.42,"nuclear/cytoplasmic p65 ratio, rep 1":2.02,"nuclear/cytoplasmic p65 ratio, rep 2":2.09,"low cell count flag":"enough cells to score","call":"inactive"}
{"target":"Vhl","p65 translocation robust z-score":-0.03,"nuclear/cytoplasmic p65 ratio, rep 1":1.5,"nuclear/cytoplasmic p65 ratio, rep 2":1.5,"low cell count flag":"enough cells to score","call":"inactive"}
{"target":"Sct","p65 translocation robust z-score":-0.49,"nuclear/cytoplasmic p65 ratio, rep 1":1.32,"nuclear/cytoplasmic p65 ratio, rep 2":1.19,"low cell count flag":"enough cells to score","call":"inactive"}
{"target":"Rwdd1","nuclear/cytoplasmic p65 ratio, rep 1":1.6,"nuclear/cytoplasmic p65 ratio, rep 2":1.13,"low cell count flag":"fewer than 50 cells per well; well left out of scoring","call":"inactive"}
{"target":"Emc3","p65 translocation robust z-score":1.9,"nuclear/cytoplasmic p65 ratio, rep 1":1.78,"nuclear/cytoplasmic p65 ratio, rep 2":1.73,"low cell count flag":"enough cells to score","call":"inactive"}
{"target":"Miip","p65 translocation robust z-score":-0.51,"nuclear/cytoplasmic p65 ratio, rep 1":1.51,"nuclear/cytoplasmic p65 ratio, rep 2":1.46,"low cell count flag":"enough cells to score","call":"inactive"}
{"target":"Etv1","p65 translocation robust z-score":0.16,"nuclear/cytoplasmic p65 ratio, rep 1":1.52,"nuclear/cytoplasmic p65 ratio, rep 2":1.36,"low cell count flag":"enough cells to score","call":"inactive"}
{"target":"Ifng","p65 translocation robust z-score":-0.8,"nuclear/cytoplasmic p65 ratio, rep 1":1.43,"nuclear/cytoplasmic p65 ratio, rep 2":1.32,"low cell count flag":"enough cells to score","call":"inactive"}
{"target":"Pdcd10","p65 translocation robust z-score":0.23,"nuclear/cytoplasmic p65 ratio, rep 1":1.52,"nuclear/cytoplasmic p65 ratio, rep 2":1.41,"low cell count flag":"enough cells to score","call":"inactive"}
